# PubChem BioAssay AID1508588, Peter MacCallum Cancer Centre | 2020
# Screen: 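Genome-wide search for knock-downs that heighten vemurafenib action in melanoma cells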 (primary screen)
# Cells: human WM266.4 melanoma cells (BRAF V600 mutant)
# Reagent: siRNA pool against human genes, 40 nM
# Time to read-out: 96 h from transfection to read-out
# Treatment: vemurafenib 300 nM (about IC25), added 48 h after transfection, for 48 h; comparison arm got DMSO vehicle only
# Measured: 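Cell gain (DAPI nuclei at end minus before drug, mean of two replicates) and medium lactate by absorbance per cell, both as ratio to non-targeting siRNA, also grouped into fold-change classes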
# Scale: cell gain with vemurafenib: higher = more cell gain than with non-targeting siRNA; lactate per cell with vemurafenib: higher = more lactate made per cell
# Rule for the call: 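a knock-down counts as enhancing when its fold-change classes with vehicle and with vemurafenib, taken together, show a stronger drug effect on cell gain or lactate per cell; exact class pairs not stated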
# Meaning of the calls: active = enhances vemurafenib effect; inactive = no enhancement seen
# The whole screen tested about 18,000 reagents; this is a random part of them. Of all reagents, 790 (4.4%) got an active call. 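Calls rest on a combination of fold-change classes in drug and vehicle arms, not all shown here.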 Unmarked entries are inactive. The numbers tell different reagents against one gene apart.
gene knocked down,reagent no.,cell gain with vemurafenib,lactate per cell with vemurafenib
CNGB1,1,0.86,0.8
GDE1,1,0.41,1.03
DEFB103B,1,0.29,1.15
FAM171A1,1,0.53,0.83
DNASE2,1,1.1,0.82
NBEA,1,0.56,0.82
PYGL,1,0.74 (active),0.65
MAGEA1,1,0.94,0.92
GAS8-AS1,1,0.51,0.67
ZBTB45,1,0.98,0.38
NIPSNAP2,1,0.71,0.54
KRTAP6-2,1,0.36,1.21
TNFAIP2,1,0.91,1.32
ZFP1,1,0.35,0.52
C19orf33,1,0.11,0.24
RABL3,1,0.65,0.88
ITGAE,1,0.6,1.26
CHST10,1,0.65,0.99
UBE2A,1,0.73,0.53
FBN3,1,0.46,0.57
POFUT3,1,0.11,0.29
GNAL,1,0.84,0.5
SCML1,1,0.21,0.99
ARHGAP28,1,0.14,0.77
SIGLEC5,1,0.53,0.55
PRRT3,1,0.44,1.55
GRM8,1,1.05,0.84
SLC4A1,1,0.88,0.72
OR6C68,1,0.38,0.48
SIX2,1,0.44,1.29
COL9A3,1,0.24,1.88
H2BC11,1,0.72,0.92
DOCK6,1,0.53,1.14
DDX12P,1,0.36,0.92
AGA,1,1.21,0.58
TMT1A,1,0.9,1.27
MOGS,1,1.33,0.62
NEDD4,1,0.65,1.08
HPRT1,1,0.38,2.04
ZNF687,1,0.44,0.99
CEACAM16,1,0.48,1.11
MACIR,1,0.67,2.01
MAP3K12,1,0.41,1.44
DPP10,1,0.56,0.96

Copied from above (14 entries):
gene knocked down,reagent no.,cell gain with vemurafenib,lactate per cell with vemurafenib
DNASE2,1,1.1,0.82
NBEA,1,0.56,0.82
PYGL,1,0.74 (active),0.65
MAGEA1,1,0.94,0.92
GAS8-AS1,1,0.51,0.67
ZBTB45,1,0.98,0.38
NIPSNAP2,1,0.71,0.54
KRTAP6-2,1,0.36,1.21
TNFAIP2,1,0.91,1.32
ZFP1,1,0.35,0.52
C19orf33,1,0.11,0.24
RABL3,1,0.65,0.88
ITGAE,1,0.6,1.26
CHST10,1,0.65,0.99

Additional reagents follow.
gene knocked down,reagent no.,cell gain with vemurafenib,lactate per cell with vemurafenib
MYO3A,1,0.39,1.33
BOP1,1,0.15,3.37
ESD,1,1.15,1
DDI1,1,0.35,0.88
C10orf88,1,0.76,0.95
PCSK4,1,0.75,1.66
MICAL2,1,0.4,1.46
MICAL2,2,0.75,0.22
TRAF3,1,0.84,1.33
ADCY1,1,0.67,0.71
ARHGAP6,1,0.73 (active),0.16
FCF1,1,0.24,1.06
EBNA1BP2,1,0,2.52
SPACA1,1,0.79,1.52
PCARE,1,0.49,2.5
FGF1,1,0.73,0.34
OR2S2,1,0.62,1.02
MOXD1,1,0.91,0.46
PALS2,1,0.45,0.64
POMP,1,-0.12,1.96
SPMIP3,1,0.06,2.19
SAXO5,1,0.41,1.16
NIPA1,1,0.93,0.52
MFRP,1,0.79,1.12
SLC28A3,1,1,1.4
PRAC1,1,0.92,0.96
OR8D1,1,0.82,0.8
ZNF519,1,0.78 (active),0.49
WASHC2A,1,0.61 (active),0.56
MAPK13,1,0.77 (active),0.48
ADSS2,1,0.83,1.06
C1QBP,1,0.9,0.8
ZNF385B,1,0.47,0.46
ITGAL,1,1.06,0.51
MCTP1,1,0.84,0.84
NONO,1,0.85,0.9
SHC3,1,0.5,0.1
RFLNB,1,0.71,0.55
SLC24A5,1,0.07,0.48
PHF2,1,0.03,1.09
